This is an account of results in patent US20090226500A1, “SUTURES AND ANTI-SCARRING AGENTS” (Angiotech Pharmaceuticals, Inc, priority 2006, published 2009).

The term IC50 denotes the point on the concentration scale where inhibition reaches its midpoint. A high value points to weaker potency.

The experiment deals with human fibroblasts. As to the kind of experiment: Cell proliferation of fibroblasts. It counts as cell-based. Conditions: Fibroblast, 72 hours, CYQUANT. Here is the method:
Fibroblasts at 70-90% confluency are trypsinized, replated at 600 cells/well in media in 96-well plates and allowed to attachment overnight. […] Each drug concentration is tested in triplicate wells. Plates containing fibroblasts and drug substance are incubated at 37° C. for 72 hours.
To terminate the assay, the media is removed by gentle aspiration. A 1/400 dilution of CYQUANT 400×GR™ dye indicator (Molecular Probes; Eugene, Oreg.) is added to 1× Cell Lysis buffer, and 200 μL of the mixture is added to the wells of the plate. Plates are incubated at room temperature, protected from light for 3-5 minutes.

Compound `CO[C@@H]1[C@H](N(C)C(=O)c2ccccc2)C[C@H]2O[C@]1(C)n1c3ccccc3c3c4c(c5c6ccccc6n2c5c31)C(=O)NC4` [Midostaurin, N-Benzoylstaurosporine] registered an IC50 of 10 to 100 nM.
